Counter-ions that a name gives are not always drawn. This is one part of the list. This data set is noisy: repeats of one test often differ as much as different tests do.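 ReNCell VM, a human fetal ventral-midbrain neural progenitor line, was differentiated without mitogens. Blinded raters scored images stained for doublecortin (early neurons) or tyrosine hydroxylase (dopaminergic neurons) against untreated wells (0 = no change). Scores were averaged across repeats and both raters, and compounds averaging 2 or more were selected as hits for retesting.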
system: ReNCell VM; assay: dopaminergic neuron differentiation score (TH+ cell fraction vs untreated, manual image score) (score (0 to 3)); higher = more TH+ dopaminergic neuron differentiation; conditions: library: Tocriscreen; 2 uM; 4 weeks; BDNF 10 ng/ml + GDNF 10 ng/ml

Dopaminergic neuron differentiation score, inactive:
Nc1ncnc2c1nc(Br)n2[C@@H]1O[C@@H]2COP(=O)(O)O[C@H]2[C@H]1O [8-Bromo-cAMP, sodium salt] 0
N#C/C(=C\c1ccc(O)c(O)c1)C(=O)OCCc1cccs1 0
O=c1cc(-c2ccccc2)oc2cc(O)c(O)c(O)c12 [Baicalein] 0
CN1CCN(C(=O)c2nc3ccc(Cl)cc3[nH]2)CC1 0
Cc1nnc(-c2ccc3occ(-c4ccc([S+](C)[O-])cc4)c3c2)o1 (configuration not stated) 0
CCCCCCCC/C=C\CCCCCCCC(=O)NCCO [Oleylethanolamide] 0
Cc1cccc(Nc2cc(Cl)nc(SCC(=O)O)n2)c1C 0
